Assay results reported in the supplement of paper PMC3334620.
The full ranking holds about 33,000 sequences; the median of “E-score (-0.5 to 0.5)” is about -0.0014, and the highest 2% start at about 0.25. Some of the results follow.

Biological target: T1, Cad1 (UniProt P24813)
T1 sequence: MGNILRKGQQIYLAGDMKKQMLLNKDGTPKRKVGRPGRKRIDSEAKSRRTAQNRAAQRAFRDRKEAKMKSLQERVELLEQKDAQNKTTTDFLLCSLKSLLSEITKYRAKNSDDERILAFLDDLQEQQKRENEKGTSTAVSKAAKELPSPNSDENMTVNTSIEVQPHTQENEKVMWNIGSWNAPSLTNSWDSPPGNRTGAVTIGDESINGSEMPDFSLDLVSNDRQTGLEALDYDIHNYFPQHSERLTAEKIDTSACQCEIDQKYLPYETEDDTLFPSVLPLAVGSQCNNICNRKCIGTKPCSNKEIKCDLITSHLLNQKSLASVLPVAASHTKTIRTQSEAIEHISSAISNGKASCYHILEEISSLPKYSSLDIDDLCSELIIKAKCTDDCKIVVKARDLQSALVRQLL
Assay: PBM E-score (8-mer binding enrichment) (E-score (-0.5 to 0.5)); higher = stronger / more preferred TF binding
Conditions: protein concentration: 100 nM; construct: GST-full length
Outline: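 Yeast transcription factors, full-length or as DNA-binding domains, were expressed with a GST tag using PURExpress in vitro transcription/translation. At about 100-200 nM they were applied to universal all-10-mer Agilent arrays, double-stranded by primer extension on fresh or once-stripped slides. Fluorescent anti-GST detected bound protein, and masliner normalised the scans. E-scores for ungapped eight-base words, pooled with reverse complements, came from the Universal PBM Analysis Suite.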

Sequence	PBM E-score
CGAGACCA	-0.0428
ATTCGTAA	0.26
GATACCGC	0.122
ATCATGTA	0.157
ATGTCATG	0.178
TATACACA	0.13
GCAAGCAC	-0.156
GCCTGAGA	-0.169
AAGAACTC	0.024
CATGGGCG	0.0134
CTAAGGTC	-0.0136
GGACGAGA	-0.112
ATACGCTG	0.156
ATTCTATA	0.0761
TCCTATCA	-0.0965
GGTAGCGA	-0.0509
CTCGTTCC	0.0398
ACAAAATG	0.216
CTACAAGC	0.00321
ACGATTAC	0.228
GATTAGGC	0.156
CATGGCCA	0.0186
CCAGAGCA	-0.00085
CCTTAACC	-0.244
CGGATACA	0.182

Sequence	PBM E-score
AATTGACG	-0.017
CCGCATCA	-0.00697
GTTACGCA	0.0739
CAGTGGAA	-0.0557
AGATCCTG	-0.0555
CAGTACCA	-0.0164
CTTCCTCA	-0.0682
AATTGATA	0.206
ATGACACA	0.194
AGCGGGAA	0.00454
ATGATCGC	-0.112
CCCCTCTC	-0.317
CGAACTCA	0.0536
GCAGCCAC	0.0416
ATACTCCA	-0.0197
ACCCTGTG	-0.0694
CCCGGTTA	-0.276
AACTCCAT	-0.00749
GCGGTTCC	0.0736
AAACGCGT	0.0821
CAATCTCA	0.0264
AAACCAGT	0.0211
CGGCCGCA	0.134
ACGGAATC	0.0332
AAAAGTCG	0.0124

Sequence	PBM E-score
GTGATTAA	0.228
GATTCTAC	-0.0358
GCACGACA	0.00295
TCGAGAGA	0.00679
AACTGGCG	-0.00717
CGAGGGAC	-0.252
CTACCTAG	-0.0511
AAGGTAAT	0.14
CTAAGCCC	-0.0174
GATGTCGA	0.0845
CTGCCCTA	-9e-05
AAGAATGG	-0.094
CGATCGTA	0.148
AATATTTC	0.264
AGTTTGCG	0.0342
TAGGAGCA	-0.179
ATAGGGGA	-0.148
GGCCGTGA	-0.022
GCAGTCGC	0.0474
AGGTACCC	-0.138
CTTATAGC	0.0436
CATCCAAC	-0.0683
ATGAGGCA	-0.148
ATATGCGC	0.0876
ATATCATA	0.166

Sequence	PBM E-score
GACGTTGC	0.112
AACCCGGG	-0.0945
GAGGGTGA	-0.138
TAGCTAGA	0.036
AAGTACGG	-0.0837
CATAGTAG	0.0761
CTATGAGC	-0.113
AAGTCCCC	-0.285
CAATGCTC	-0.0896
ATTGTAAG	0.00166
CAAACTTG	0.0981
CGGCACCG	0.123
AATGCCGC	0.186
CACGACTC	0.0563
GAACAACC	0.067
CAGAGGGC	-0.213
ACTACAGG	0.0099
ATGACGAA	0.145
CTACCAGC	-0.0889
ACTCGGAC	0.138
AGAAGCGG	-0.185
CCGTGGGC	-0.0576
AGCCAGTC	-0.129
AGACTGCC	0.0356
CACCACCG	-0.227

Sequence	PBM E-score
ACTAAGCT	0.223
AGTTTGAG	0.0378
AGTATGAA	0.113
TAGTTGGA	0.0156
TCGGCTAA	0.0525
AGACGGTA	-0.0335
AGAATGAA	0.0669
ACTCGAGT	0.311
CACCCAGC	-0.217
GCTCAGAC	-0.0381
AACCCGTT	-0.188
AATTGGGG	-0.0465
AGGCAGCC	-0.126
AAAACGGG	0.151
CGCCTCCC	-0.228
GAAGCTCA	-0.0369
ATCCACCA	0.0363
CAAGAGCA	-0.251
CCACGCAA	0.103
CTTGCTTA	0.107
ACGCGCAC	0.134
GAAGAGCA	-0.27
AACACATA	0.153
GTGCCTGA	-0.16
TCAACAAA	0.101

Sequence	PBM E-score
TACACCGA	-0.0418
AACCCGGT	-0.114
ATATGCCA	0.0827
GAAAAGGC	-0.113
AAACGATG	0.0272
ATATGGGC	0.0487
TAGCTGCA	-0.0732
ACAACGGT	-0.0127
ACACGGTA	0.039
TACAGATA	0.187
AAAGAGAT	-0.0632
AATCCTGC	0.0951
CCACCGAC	-0.112
GGTCTCCA	-0.0556
GAGTCTTA	-0.144
CCTTGACG	-0.107
AATTACGA	0.148
AGAGCGTG	-0.0848
CCATGACC	-0.225
AGCCGCGC	0.189
CCTTCCAG	-0.131
GGCCCGCA	-0.108
AGATGCCA	-0.163
AATGAAGA	0.0403
AGGTGGCC	-0.237

Sequence	PBM E-score
CACAAGGG	-0.2
ACACAGGT	-0.0976
ATAAGTAG	-0.0551
AGTGGGAC	-0.217
ATGCGAAA	0.215
CTTATCTA	0.226
ACTCAGGG	-0.0494
CGAGCGCG	0.195
GGACACAC	0.0335
CACTAGGG	-0.236
AGTACAAC	-0.129
CAATGCGG	0.0983
AAGTATAG	-0.0893
CCTAGTTC	-0.101
AATCGACA	0.304
ATTGCGAG	-0.0163
TATTTTCA	0.187
ACTCGTCG	-0.126
TCTGGGAA	0.0282
AGCTACCT	0.0613
GTTCTAGA	0.166
CTGCTCCA	-0.00118
